The source of these data is PubChem BioAssay AID2685 (National Center for Advancing Translational Sciences (NCATS), 2010).

This test can be described thus: qHTS Assay for Lipid Storage Modulators in Drosophila S3 Cells.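 As to cell number change: cells counted by Cell Tracker Red CMTPX staining in the red channel.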 As to conditions: BODIPY lipid droplet fluorescence, 18-24 h; for cell number change: measured here: cell count max response, cells fed with added oleic acid. In a few lines:
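Laser-scanning cytometry quantifies lipid droplet accumulation (500–530 nm total intensity; droplet/cell object ratio) in oleic acid-fed (400 uM added) Drosophila S3 cells treated with a concentration series. 20 uM Triacsin C defined 100% inhibition.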
(In general: In qHTS, concentration-response curves come from the screen itself.)

Setting [1] is: measured here: cell number channel AC50, cells fed with added oleic acid.
Where [2] appears, read: measured here: lipid fluorescence (Fed channel) AC50, cells fed with added oleic acid.

The list shows a part of the results. These are further read-outs of the screen, such as a control signal, another cell line or another target. No call is given for them. Most of these compounds were active or inconclusive in the main read-out, so they are no random draw. Potencies come from curve fits of mixed quality, noted in brackets.

For `COc1ccc(C)cc1S(=O)(=O)N1CCN(S(=O)(=O)c2cc(C)ccc2OC)C(C)C1` (stereo not given), under setting [1], the AC50 was 6.51 µM [falling, single point].
With `CC(C)N1C(=O)C(=O)N(CC(=O)N2CCc3ccccc32)C1=O`, the cell number change stood at 14.4%. The AC50 under setting [2] was 29.1 µM [rising, single point].
Turning to `O=C(O)CCCC(=O)N1CCCC1`, the cell number change was -17.6%. Moreover, the half-maximal activity concentration (AC50) under setting [2] is 32.6 µM [falling, single point].
For the molecule `Cc1ccc(C(=O)NC(=S)NNC(=O)COc2ccc([N+](=O)[O-])cc2)cc1`, the cell number change turned out to be 8.7%. Further, the concentration at half-maximal activity (AC50) under setting [2] was 6.51 µM [falling, single point].
For `COc1ccccc1N1CCN(CCCCOc2cccc3ccccc23)CC1`, the cell number change is -44.9%. Besides, the concentration at half-maximal activity (AC50) under setting [1] was 29.1 µM [falling, single point]. Also, the concentration at half-maximal activity (AC50) under setting [2] is 3.66 µM [rising, single point].
For the molecule `O=C(CN1C(=O)NC2(CCCCC2)C1=O)N1CCN(S(=O)(=O)c2ccc(F)cc2)CC1`, the cell number change was -0.659%.
With `CC(C)(C)C(=O)N1NC(=Nc2ccccc2)SC1(C)C`, the cell number change was -53.4%. For the same molecule, the AC50 under setting [1] was 29.1 µM [falling, single point]. Further, the AC50 under setting [2] was 32.6 µM [falling, single point].
In the case of `CCCNC(=O)c1nc2ncc(Br)cn2n1`, the cell number change was -0.628%. Under setting [2], the AC50 was 0.164 µM [falling, full curve].
For `CCn1cc(C(=O)NCCc2ccccc2)c(=O)c2cc(F)c(N3CCN(C)CC3)cc21`, the AC50 under setting [2] is 0.58 µM [rising, single point].
For `COc1ccc(C(=O)COC(=O)c2ccc(-n3cnnn3)cc2)c(OC)c1`, the cell number change is 2.81%.
On to `COc1ccc(CNC(=O)CNC(=O)N2CC(=O)Nc3ccccc32)cc1`, for which the cell number change turned out to be 2.28%. Also, the AC50 under setting [2] is 29.1 µM [rising, single point].
As to `O=C(Nc1ccc2c(c1)OCO2)c1c(F)c(F)c(F)c(F)c1F`, the cell number change was -4.43%. Further, the AC50 under setting [2] was 16.4 µM [rising, single point].
For the molecule `CC(=O)c1c(O)cc(O)c(C(C)=O)c1O`, the cell number change was -41.9%. Also, the half-maximal activity concentration (AC50) under setting [1] is 16.4 µM [falling, single point]. Under setting [2], the AC50 was 29.1 µM [falling, single point].
With `CCCNC(=O)CN(C1CCCCC1)S(C)(=O)=O`, the cell number change is -17.3%. Under setting [1], the AC50 is 1.84 µM [falling, partial curve].
Turning to `Cc1ccc(SCC(=O)Nc2cccc(S(=O)(=O)N3CCOCC3)c2)cc1C`, the cell number change came to 15%.
As for `O=C(NCCCN1CCOCC1)c1cc(Cl)ccc1[N+](=O)[O-]`, under setting [2], the AC50 was 29.1 µM [rising, single point].
Turning to `CC12CC(c3ccccc3O1)N(C(=O)c1ccc(Br)o1)C(=O)N2c1ccccc1` (stereo not given), the cell number change is 37.8%. For the same molecule, under setting [1], the AC50 is 4.61 µM [rising, partial curve].
On to `O=C(/C=C\Nc1ccc(Cl)cn1)c1ccc(Br)cc1`, for which the cell number change was -9.55%. Further, the AC50 under setting [2] was 23.1 µM [falling, single point].
Take `CCOCCCn1c(SCC(=O)N2CCOCC2)nc2ccccc2c1=O`: the cell number change is 18.9%. Further, the AC50 under setting [2] is 29.1 µM [falling, single point].
With `COc1cccc(Nc2nnc(SCn3nnc4ccccc4c3=O)s2)c1`, the cell number change is -10.6%. Also, under setting [2], the AC50 is 2.59 µM [rising, full curve, poor fit].
As for `CCC(=O)c1ccc(N2CCN(C(=O)c3cccs3)CC2)c(F)c1`, the cell number change worked out at 2.59%. For the same molecule, under setting [2], the AC50 was 29.1 µM [falling, single point].
On to `O=C1Nc2ccccc2C(=O)N2C[C@@H](O)C[C@H]12`, for which the cell number change was determined as 18.5%. In addition, under setting [2], the AC50 was 10.3 µM [rising, partial curve, poor fit].
Take `COC(=O)c1sccc1NC(=O)c1ccc(Br)s1`: the AC50 under setting [2] was 6.51 µM [rising, single point].
Turning to `CCOC(=O)c1nnc(-c2ccccc2)nc1Sc1c(Cl)cccc1Cl`, the cell number change was -17.3%. Besides, the AC50 under setting [2] is 0.184 µM [falling, full curve, poor fit].
As to `c1cncc(-c2ccc3ncnc(NCc4cccs4)c3c2)c1`, the cell number change amounted to 26.6%. Also, the AC50 under setting [2] was 9.2 µM [rising, partial curve, poor fit].
For `CCOC(=O)c1nnn(-c2nonc2-n2cccc2)c1C`, the cell number change came out at 0.331%.
In the case of `O=C(CCN1C(=O)c2ccccc2S1(=O)=O)Nc1cc(Cl)ccc1Cl`, the cell number change was -75%. Also, under setting [1], the concentration at half-maximal activity (AC50) was 29.1 µM [falling, single point].
Take `COCc1nnc(SCC(=O)NCc2ccccc2)n1-c1ccccc1`: the cell number change is -8.09%.
For `O=C(CSc1ncnc2c1oc1ccccc12)NCc1ccco1`, the cell number change is -52.4%. The half-maximal activity concentration (AC50) under setting [1] was 9.2 µM [falling, partial curve].
In the case of `CCc1ccc(NC(=O)C(C)OC(=O)c2cc(=O)[nH]c3ccc(S(=O)(=O)Nc4ccc(F)cc4)cc23)cc1` (stereo not given), the cell number change worked out at 81.2%. Further, the AC50 under setting [1] was 29.1 µM [rising, single point].
As for `O=C(COc1coc(CN2CCN(c3ccccc3)CC2)cc1=O)NC1CCCC1`, the cell number change amounted to 9.34%. Moreover, the AC50 under setting [2] is 2.31 µM [falling, single point].
Turning to `O=C(CN1CCN(Cc2ccccc2)CC1)Nc1nc2ccccc2s1`, the cell number change stood at 11.3%.
On the same count and under the same terms, the value for `Cc1ccc(C2(CCNC(C)c3cccs3)CCOC(C(C)C)C2)cc1` (stereo not given) was -0.615%.
For `COc1ccc(N=c2sc3ccccc3n2C)cc1`, the cell number change was 37.5%. For the same molecule, the AC50 under setting [1] is 8.2 µM [rising, partial curve, poor fit]. In addition, under setting [2], the AC50 was 6.51 µM [falling, partial curve, poor fit].
For `O=C(CSc1nnc(CNC(=O)c2cccs2)o1)Nc1cccc(F)c1`, the cell number change came out at 32.9%. Besides, the AC50 under setting [1] is 0.0082 µM [rising, full curve, poor fit]. The AC50 under setting [2] is 5.8 µM [rising, full curve].
With `Cc1ccc(NC(=O)CN2C(=O)S/C(=C\c3ccccn3)C2=O)cc1C`, the cell number change was -31.7%. Moreover, the AC50 under setting [1] is 4.61 µM [falling, full curve].
With `CCC1C(=O)NCCN1C(=O)c1ccccc1OC1CCN(S(C)(=O)=O)CC1` (stereo not given), the cell number change is -10.9%. The AC50 under setting [2] was 0.231 µM [falling, full curve, poor fit].
On to `CCOC(=O)c1c(C)n(C(=O)c2ccco2)c(=O)n1C(=O)c1ccco1`, for which the cell number change is -7.14%.
In the case of `CC(C)CCN1C(=O)c2ccc(C(=O)Nc3ccc(O)cc3C(=O)O)cc2C1=O`, the cell number change amounted to 20.7%. The AC50 under setting [1] was 0.651 µM [rising, full curve].
On to `NS(=O)(=O)c1ccc(CCN=C(NS(=O)(=O)c2cccs2)c2ccccc2)cc1`, for which the cell number change was -7.1%. Under setting [2], the AC50 is 1.84 µM [falling, partial curve, poor fit].
For the molecule `COc1ccc(CCNC(=O)CN(c2ccc(OC)c(OC)c2)S(C)(=O)=O)cc1`, the cell number change worked out at 1.28%.
With `O=C(NCc1cccnc1)C1CCCN(S(=O)(=O)c2cccc3nsnc23)C1` (stereo not given), the cell number change came out at 30.1%. Also, the half-maximal activity concentration (AC50) under setting [1] is 0.0731 µM [rising, full curve, poor fit]. The AC50 under setting [2] was 0.00651 µM [rising, full curve, poor fit].
In the case of `N#Cc1ccncc1S(=O)c1ccc(Cl)cc1` (stereo not given), the cell number change is 30.8%. Besides, under setting [1], the AC50 was 18.4 µM [rising, partial curve, poor fit].
As for `Cc1cc(C)c(S(=O)(=O)c2ccccc2)c(OC(=O)c2c(F)cccc2Cl)n1`, the cell number change is -46.7%. Besides, the AC50 under setting [1] is 29.1 µM [falling, single point].
For the molecule `O=C(O)C1C2C=CC(C2)C1C(=O)NCCCN1CCOCC1` (stereo not given), the cell number change is -36.1%. In addition, under setting [2], the AC50 is 29.1 µM [falling, single point].
For `CCOC(=O)c1c(CN2CCN(C)CC2)n(-c2ccccc2)c2cc(Br)c(O)cc12`, the cell number change was -2.22%. Moreover, the AC50 under setting [2] is 6.51 µM [rising, single point].
Take `CCCN(Cc1ccccc1)C(=O)Nc1ccc2c(c1)nnn2C`: the AC50 under setting [1] is 6.51 µM [rising, partial curve].
Take `CCOc1cc(C(=O)OCC(=O)Nc2ccc(Cl)cn2)ccc1OCC(=O)N1CCOCC1`: the cell number change stood at 31.6%. Also, under setting [1], the concentration at half-maximal activity (AC50) was 5.17 µM [rising, partial curve]. For the same molecule, the AC50 under setting [2] is 0.58 µM [rising, single point].
Consider `CCCn1c2ccccc2c2cnn(CC(=O)NCCCN3CCCC(C)C3)c(=O)c21` (stereo not given), for which the cell number change came out at 35.7%. Under setting [1], the AC50 was 16.4 µM [rising, partial curve, poor fit].
Turning to `C=CCOc1ccc(/C=C2\C(=N)N3N=C(S(=O)(=O)CC)SC3=NC2=O)cc1OC`, the cell number change was 25.4%. For the same molecule, the AC50 under setting [2] is 0.00411 µM [rising, full curve, poor fit].
Turning to `CC(=O)NC(Cc1ccc(O)cc1)C(=O)NN` (stereo not given), under setting [1], the AC50 was 2.59 µM [falling, partial curve].
Take `Cc1ccc(C(=O)Nc2nc(-c3ccc(F)cc3)cs2)o1`: the cell number change is -19.7%.
Consider `COc1c(C=O)cc2c3c1CCCN3CCC2`, for which the cell number change amounted to 8.21%. Also, the AC50 under setting [2] is 4.61 µM [rising, full curve].
Regarding `CSc1nnc(N2C(=O)C(O)=C(C(=O)c3ccc(C)o3)C2c2ccc(C)cc2)s1` (stereo not given), the cell number change was -0.85%. The AC50 under setting [1] is 0.651 µM [rising, single point].
As to `CCOC(=O)c1sc(NC(=O)c2cccc(S(=O)(=O)N3CCN(C)CC3)c2)cc1C`, the cell number change was -37%. Also, under setting [1], the AC50 was 32.6 µM [falling, single point]. Further, the AC50 under setting [2] was 7.31 µM [falling, partial curve].
For the molecule `COC(=O)c1ccc(/C=N/NC(=O)c2ccccc2Cl)cc1`, the cell number change is -5.47%.
For the molecule `CS(=O)(=O)c1ccc2nc(NC(=O)c3ccc(Cn4cc(Br)cn4)o3)sc2c1`, the cell number change is 8.59%. Under setting [2], the concentration at half-maximal activity (AC50) is 2.06 µM [rising, partial curve].
On to `Cc1ccccc1C(=O)c1cccn1CC(=O)NCc1ccco1`, for which the cell number change was 14.4%. Moreover, under setting [2], the AC50 was 4.61 µM [falling, single point].
Consider `COc1ccc(-n2c(SC)nc(O)cc2=O)cc1`, for which the cell number change was -30.5%. Further, under setting [1], the AC50 is 20.6 µM [falling, partial curve, poor fit].
As to `CCN1CCN(C(=O)CCNC(=O)Cn2cnc3ccccc3c2=O)CC1`, the cell number change is 3.75%.
As to `Cn1nc(C(F)(F)F)cc1Oc1ncc(C(F)(F)F)cc1Cl`, the cell number change was -38.6%.
As for `O=C(C[n+]1ccccc1)c1ccc(NC(=O)c2ccccc2)cc1`, the cell number change was -0.671%. For the same molecule, the AC50 under setting [2] is 8.2 µM [falling, partial curve].
Take `O=S(=O)(c1cccc(-c2nnco2)c1)N1CCCC1`: the cell number change was -27.1%.
For the molecule `Cc1nn(-c2ccccc2)c(C)c1NC(=O)COc1ccc([N+](=O)[O-])cc1`, under setting [2], the half-maximal activity concentration (AC50) was 14.6 µM [rising, partial curve].

A word on the AC50: it is the midpoint of the concentration-response curve, whichever way the signal moves.
